At least one structure is not confirmed: it was looked up by name or label, or the drawing left a doubt.
Legend:
hnRNP-E1 mRNA = experiment: In vitro translation of hnRNP-E1; format: biochemical, human
Protocol: In vitro transcription-translation was carried out using the Linked SP6/T7 In Vitro Transcription/Translation Kit (Roche Applied Science) after addition of one of various targeted DNAs—pSPT18-25-hnRNP-E1 DNA, or Pst1-linearized plasmid pSPT18-folate receptor-α, or HPV16 L2 DNA, (0.5 μg/reaction)—to the transcription mix as described. In other experiments, the capacity for perturbing the interaction of hnRNP-E1 with the 25-nt hnRNP-E1 cis-element during in vitro translation was assessed in the presence of either scrambled oligonucleotides (5′-[…]-3′ SEQ ID NO:20) or specific antisense oligonucleotides (5′-[…]-3′ SEQ ID NO:21) generated against the 25-nt hnRNP-E1 mRNA cis-element (GenScript USA, Piscataway, N.J.).

By UniProt entry, the sequences of proteins in these tests, tags left out.
UniProt Q15365, whole entry A205V: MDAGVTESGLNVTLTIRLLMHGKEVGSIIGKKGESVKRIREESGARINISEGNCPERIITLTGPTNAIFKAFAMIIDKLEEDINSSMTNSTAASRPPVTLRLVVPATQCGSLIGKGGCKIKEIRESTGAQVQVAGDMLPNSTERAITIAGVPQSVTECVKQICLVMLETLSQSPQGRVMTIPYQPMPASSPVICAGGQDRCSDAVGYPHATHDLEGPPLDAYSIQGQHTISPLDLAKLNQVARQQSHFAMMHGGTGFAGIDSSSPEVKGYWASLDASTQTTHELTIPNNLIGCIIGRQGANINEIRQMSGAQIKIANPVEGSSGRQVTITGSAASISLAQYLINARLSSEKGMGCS

[1] = target: T1, RNA-protein complexes of GST-hnRNP-E1 and 25-nt hnRNP-E1 mRNA cis-element (Homo sapiens, UniProt Q15365, A205V); experiment: Gel-shift assay: effect of thiols, iron and deferoxamine on RNA-protein complex formation; format: binding
T1 construct: made in house; host or cells: Escherichia coli BL21
Protocol: Other studies assessed the effect of iron(II) or iron(III) on homocysteine-induced RNA-protein interactions.
Studies were conducted to evaluate the effect of iron(II) (as ferrous sulfate heptahydrate) or iron(III) (as ferric chloride hexahydrate) in modulating RNA-protein interactions during gel-shift assays in either the absence or presence of 10-mM glutathione. The iron preparation, either alone or with 50-μM of deferoxamine (DFO) to define the specificity of iron(II), was incubated first with glutathione and hnRNP-E1 before addition of other components of the reaction mixture. […] The samples were analyzed by PAGE and autoradiography overnight followed by densitometric analysis of the signals representing RNA-protein complexes.

CC(=O)N(O)CCCCCNC(=O)CCC(=O)N(O)CCCCCNC(=O)CCC(=O)N(O)CCCCCN [deferoxamine]
effect on quenching of hnRNP-E1 translation by iron(II) (hnRNP-E1 mRNA; 25-μM iron(II), dose-dependent): progressively reversing the quenching effect
effect on in vitro translation of hnRNP-E1 (hnRNP-E1 mRNA; agent added to translation mixture (4.1-mM ß-ME)): did not independently influence in vitro translation of hnRNP-E1
effect on the quenching effect of iron(II) ([1]; 50 μM deferoxamine, no glutathione): near-completely blocked
effect on the quenching effect of iron(III) ([1]; deferoxamine, 10-mM glutathione): eliminate the quenching effect of iron(III)

From US10093706B2, “Dominant positive hnRNP-E1 polypeptide compositions and methods” (Indiana University Research and Technology Corporation, priority 2017, dated 2018)
